We go through 1 compound from paper PMC9398908, “GLP-1-mediated delivery of tesaglitazar improves obesity and glucose metabolism in male mice” (Nature Metabolism, 2022).

Where “and” joins values, the source holds several entries; their conditions need not be identical. Equal values may be shown once.

This data set deals with C57BL6/J DIO mice. Briefly: Pancreatic islet histology: islet size and insulin, glucagon, somatostatin signal intensity (Extended Data Fig. 2i–m). It counts as in vivo, mouse. The conditions noted are these: Extended Data Fig. 2k; 49-wk old male DIO mice, 14 days daily s.c. 50 nmol/kg; individual mice, n = 3.

In the case of `CCO[C@@H](Cc1ccc(OCCc2ccc(OS(C)(=O)=O)cc2)cc1)C(=O)O` [tesaglitazar, (S)-2-ethoxy-3-(4-(4-((methylsulfonyl)oxy)phenethoxy)phenyl) propanoic acid], the “signal intensity Insulin (per islet area)” value is 27.00 and 23.52 and 32.22.
